Source: the supplement of paper PMC7666118
The other results are listed elsewhere or left out.

Chains of the proteins cited; added tags and fusions are not shown. Lines headed by an entry give the natural chain unless they say otherwise; changes in a name come on top.
UniProt Q9BTD8: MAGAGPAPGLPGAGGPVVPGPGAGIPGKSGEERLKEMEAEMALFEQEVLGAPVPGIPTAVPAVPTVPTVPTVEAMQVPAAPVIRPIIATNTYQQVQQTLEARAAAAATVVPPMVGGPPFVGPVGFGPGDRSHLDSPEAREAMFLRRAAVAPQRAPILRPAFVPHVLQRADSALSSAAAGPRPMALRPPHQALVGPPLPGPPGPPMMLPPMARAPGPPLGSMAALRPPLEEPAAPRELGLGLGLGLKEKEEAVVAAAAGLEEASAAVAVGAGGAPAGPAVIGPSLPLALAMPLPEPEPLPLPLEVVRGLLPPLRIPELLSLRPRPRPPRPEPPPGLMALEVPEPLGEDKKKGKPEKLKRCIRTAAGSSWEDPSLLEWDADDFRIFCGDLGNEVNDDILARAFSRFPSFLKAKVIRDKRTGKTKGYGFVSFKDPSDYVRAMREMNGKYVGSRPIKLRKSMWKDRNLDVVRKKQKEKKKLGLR
UniProt P20340: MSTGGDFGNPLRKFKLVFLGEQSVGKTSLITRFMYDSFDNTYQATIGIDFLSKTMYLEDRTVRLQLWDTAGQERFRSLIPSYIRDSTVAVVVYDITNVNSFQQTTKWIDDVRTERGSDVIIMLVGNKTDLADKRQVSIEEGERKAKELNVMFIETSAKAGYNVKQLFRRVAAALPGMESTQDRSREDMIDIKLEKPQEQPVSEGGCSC
UniProt P24158: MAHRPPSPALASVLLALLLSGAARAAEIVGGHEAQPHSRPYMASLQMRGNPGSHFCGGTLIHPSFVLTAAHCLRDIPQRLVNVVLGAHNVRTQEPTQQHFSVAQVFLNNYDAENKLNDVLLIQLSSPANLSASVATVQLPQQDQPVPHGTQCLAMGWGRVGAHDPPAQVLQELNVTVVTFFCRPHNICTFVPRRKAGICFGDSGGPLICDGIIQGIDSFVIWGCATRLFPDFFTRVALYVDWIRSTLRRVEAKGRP
UniProt Q9H3S7: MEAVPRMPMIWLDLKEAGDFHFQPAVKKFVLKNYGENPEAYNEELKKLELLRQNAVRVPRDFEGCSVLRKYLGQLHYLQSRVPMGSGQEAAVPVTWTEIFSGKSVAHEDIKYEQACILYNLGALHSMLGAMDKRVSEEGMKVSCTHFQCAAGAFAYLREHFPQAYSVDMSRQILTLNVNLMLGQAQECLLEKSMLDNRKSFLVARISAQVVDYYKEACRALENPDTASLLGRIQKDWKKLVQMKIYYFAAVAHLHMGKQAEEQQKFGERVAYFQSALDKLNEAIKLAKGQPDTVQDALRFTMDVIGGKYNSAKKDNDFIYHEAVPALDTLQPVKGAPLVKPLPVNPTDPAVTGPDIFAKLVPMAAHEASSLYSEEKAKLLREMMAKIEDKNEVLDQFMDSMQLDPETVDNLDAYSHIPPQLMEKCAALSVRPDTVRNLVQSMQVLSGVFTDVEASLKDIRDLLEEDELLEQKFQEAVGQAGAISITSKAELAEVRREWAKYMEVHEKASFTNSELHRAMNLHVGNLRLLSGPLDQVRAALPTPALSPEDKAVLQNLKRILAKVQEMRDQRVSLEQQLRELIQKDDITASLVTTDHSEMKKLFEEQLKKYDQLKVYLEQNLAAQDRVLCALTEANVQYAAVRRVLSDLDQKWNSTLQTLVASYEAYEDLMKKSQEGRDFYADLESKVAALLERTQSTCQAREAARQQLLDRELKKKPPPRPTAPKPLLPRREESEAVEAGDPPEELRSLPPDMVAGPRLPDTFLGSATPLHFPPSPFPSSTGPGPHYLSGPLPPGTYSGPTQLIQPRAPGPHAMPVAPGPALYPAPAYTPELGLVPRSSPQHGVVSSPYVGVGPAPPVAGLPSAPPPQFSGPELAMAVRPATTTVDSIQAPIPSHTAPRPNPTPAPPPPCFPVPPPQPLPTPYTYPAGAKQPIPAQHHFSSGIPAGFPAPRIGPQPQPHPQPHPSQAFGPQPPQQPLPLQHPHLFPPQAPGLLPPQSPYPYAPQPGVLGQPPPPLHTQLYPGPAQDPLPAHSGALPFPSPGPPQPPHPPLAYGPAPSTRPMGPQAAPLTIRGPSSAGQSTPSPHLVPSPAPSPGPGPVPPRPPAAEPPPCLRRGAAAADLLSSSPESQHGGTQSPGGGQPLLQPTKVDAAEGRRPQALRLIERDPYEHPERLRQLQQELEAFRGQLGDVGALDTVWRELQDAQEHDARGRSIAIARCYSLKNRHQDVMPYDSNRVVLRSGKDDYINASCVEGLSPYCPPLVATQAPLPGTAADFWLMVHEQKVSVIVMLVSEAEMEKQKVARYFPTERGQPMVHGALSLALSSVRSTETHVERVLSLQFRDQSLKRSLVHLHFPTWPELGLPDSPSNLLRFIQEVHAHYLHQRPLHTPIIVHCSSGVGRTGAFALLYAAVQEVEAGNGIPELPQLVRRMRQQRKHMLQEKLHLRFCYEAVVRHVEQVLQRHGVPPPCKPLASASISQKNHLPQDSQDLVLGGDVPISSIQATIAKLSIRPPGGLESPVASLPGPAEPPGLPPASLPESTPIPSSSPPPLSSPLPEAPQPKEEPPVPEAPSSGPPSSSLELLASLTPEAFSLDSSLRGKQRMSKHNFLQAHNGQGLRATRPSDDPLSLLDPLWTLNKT
UniProt P43487, whole entry: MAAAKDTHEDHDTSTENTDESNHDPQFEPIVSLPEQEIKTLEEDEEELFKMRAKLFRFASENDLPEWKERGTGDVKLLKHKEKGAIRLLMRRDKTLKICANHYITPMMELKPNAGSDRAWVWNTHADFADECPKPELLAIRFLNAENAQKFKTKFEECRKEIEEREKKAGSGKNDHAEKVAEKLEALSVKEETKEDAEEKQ
UniProt Q9UI14, whole entry: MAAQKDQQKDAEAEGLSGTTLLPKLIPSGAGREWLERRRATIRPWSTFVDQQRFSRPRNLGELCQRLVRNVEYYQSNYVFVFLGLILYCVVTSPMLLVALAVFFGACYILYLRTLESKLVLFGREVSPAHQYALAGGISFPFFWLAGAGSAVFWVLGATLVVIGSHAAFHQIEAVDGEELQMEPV
UniProt P48556: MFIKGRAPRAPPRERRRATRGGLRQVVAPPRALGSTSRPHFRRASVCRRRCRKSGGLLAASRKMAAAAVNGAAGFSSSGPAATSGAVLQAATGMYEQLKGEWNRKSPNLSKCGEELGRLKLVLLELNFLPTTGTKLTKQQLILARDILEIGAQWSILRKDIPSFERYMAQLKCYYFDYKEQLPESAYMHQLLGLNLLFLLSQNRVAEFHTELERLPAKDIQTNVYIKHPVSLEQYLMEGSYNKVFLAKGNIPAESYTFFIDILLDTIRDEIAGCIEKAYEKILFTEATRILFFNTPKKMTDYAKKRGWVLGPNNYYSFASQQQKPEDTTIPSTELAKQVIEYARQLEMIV
UniProt Q96S59, whole entry: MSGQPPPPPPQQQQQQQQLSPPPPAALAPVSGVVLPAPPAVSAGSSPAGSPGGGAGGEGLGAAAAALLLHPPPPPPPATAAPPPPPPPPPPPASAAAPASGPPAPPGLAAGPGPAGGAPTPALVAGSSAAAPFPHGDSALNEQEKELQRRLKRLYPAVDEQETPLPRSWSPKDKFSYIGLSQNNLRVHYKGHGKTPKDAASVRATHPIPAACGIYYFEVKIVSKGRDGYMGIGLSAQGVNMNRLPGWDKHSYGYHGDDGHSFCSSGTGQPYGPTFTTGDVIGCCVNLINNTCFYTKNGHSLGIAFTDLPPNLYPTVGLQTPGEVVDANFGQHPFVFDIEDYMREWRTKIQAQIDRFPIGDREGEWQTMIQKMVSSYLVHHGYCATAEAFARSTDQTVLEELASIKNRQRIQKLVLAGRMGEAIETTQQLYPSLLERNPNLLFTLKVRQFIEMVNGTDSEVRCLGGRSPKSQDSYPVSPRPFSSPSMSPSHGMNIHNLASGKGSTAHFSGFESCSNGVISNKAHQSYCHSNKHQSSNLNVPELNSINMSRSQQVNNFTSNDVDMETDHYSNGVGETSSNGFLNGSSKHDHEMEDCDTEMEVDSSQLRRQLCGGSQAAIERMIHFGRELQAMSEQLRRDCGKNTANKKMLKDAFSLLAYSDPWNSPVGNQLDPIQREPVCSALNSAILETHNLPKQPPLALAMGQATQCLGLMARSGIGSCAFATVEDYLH
UniProt Q9NW13: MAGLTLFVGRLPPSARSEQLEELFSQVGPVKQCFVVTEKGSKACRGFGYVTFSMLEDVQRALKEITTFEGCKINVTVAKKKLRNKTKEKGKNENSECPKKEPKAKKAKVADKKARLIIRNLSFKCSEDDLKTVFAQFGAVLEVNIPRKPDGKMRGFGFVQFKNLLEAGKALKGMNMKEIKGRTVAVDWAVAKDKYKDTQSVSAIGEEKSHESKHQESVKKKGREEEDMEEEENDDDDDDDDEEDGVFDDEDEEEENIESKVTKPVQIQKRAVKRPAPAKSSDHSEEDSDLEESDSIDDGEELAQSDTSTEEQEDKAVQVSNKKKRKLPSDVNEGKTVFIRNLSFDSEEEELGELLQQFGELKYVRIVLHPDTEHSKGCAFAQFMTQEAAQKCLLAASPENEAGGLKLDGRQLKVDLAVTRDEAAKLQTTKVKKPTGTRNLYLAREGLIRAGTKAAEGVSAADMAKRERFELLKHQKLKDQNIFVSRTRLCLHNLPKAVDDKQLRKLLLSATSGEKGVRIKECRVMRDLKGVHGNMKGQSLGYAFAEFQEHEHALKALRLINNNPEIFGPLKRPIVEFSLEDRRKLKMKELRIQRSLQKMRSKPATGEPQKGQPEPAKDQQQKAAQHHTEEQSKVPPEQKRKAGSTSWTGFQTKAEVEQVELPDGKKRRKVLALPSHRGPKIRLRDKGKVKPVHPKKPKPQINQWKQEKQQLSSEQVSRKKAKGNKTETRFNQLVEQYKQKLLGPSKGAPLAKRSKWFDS
UniProt Q15311: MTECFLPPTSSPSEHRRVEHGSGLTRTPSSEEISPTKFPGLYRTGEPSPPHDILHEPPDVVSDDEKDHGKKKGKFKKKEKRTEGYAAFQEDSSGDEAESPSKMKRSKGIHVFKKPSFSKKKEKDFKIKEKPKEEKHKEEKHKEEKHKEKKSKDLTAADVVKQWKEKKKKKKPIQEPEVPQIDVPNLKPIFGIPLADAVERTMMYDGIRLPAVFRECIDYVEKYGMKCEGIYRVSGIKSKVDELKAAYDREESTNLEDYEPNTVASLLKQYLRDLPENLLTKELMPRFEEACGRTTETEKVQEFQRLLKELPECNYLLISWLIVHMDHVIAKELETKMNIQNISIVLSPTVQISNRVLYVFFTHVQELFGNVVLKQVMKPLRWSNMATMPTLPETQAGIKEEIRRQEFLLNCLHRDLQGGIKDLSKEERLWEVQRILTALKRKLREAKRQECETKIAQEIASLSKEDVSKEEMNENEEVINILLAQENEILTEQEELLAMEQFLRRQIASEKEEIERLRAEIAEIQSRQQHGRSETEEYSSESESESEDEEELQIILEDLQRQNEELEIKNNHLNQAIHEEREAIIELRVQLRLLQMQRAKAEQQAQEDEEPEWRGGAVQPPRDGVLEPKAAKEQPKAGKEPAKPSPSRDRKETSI
UniProt P61289: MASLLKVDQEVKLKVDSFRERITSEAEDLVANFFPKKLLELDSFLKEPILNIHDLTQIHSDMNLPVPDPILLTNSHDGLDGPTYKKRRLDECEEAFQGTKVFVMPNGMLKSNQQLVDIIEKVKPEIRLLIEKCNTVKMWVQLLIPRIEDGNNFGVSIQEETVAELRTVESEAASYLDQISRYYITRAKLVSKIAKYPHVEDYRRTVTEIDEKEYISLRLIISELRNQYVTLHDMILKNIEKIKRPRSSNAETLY
UniProt O95997: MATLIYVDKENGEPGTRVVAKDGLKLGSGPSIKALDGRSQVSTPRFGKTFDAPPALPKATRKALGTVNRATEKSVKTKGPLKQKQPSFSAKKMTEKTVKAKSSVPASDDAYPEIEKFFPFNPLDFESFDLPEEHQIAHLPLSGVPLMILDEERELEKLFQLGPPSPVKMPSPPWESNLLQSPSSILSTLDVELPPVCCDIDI
UniProt Q96PK6: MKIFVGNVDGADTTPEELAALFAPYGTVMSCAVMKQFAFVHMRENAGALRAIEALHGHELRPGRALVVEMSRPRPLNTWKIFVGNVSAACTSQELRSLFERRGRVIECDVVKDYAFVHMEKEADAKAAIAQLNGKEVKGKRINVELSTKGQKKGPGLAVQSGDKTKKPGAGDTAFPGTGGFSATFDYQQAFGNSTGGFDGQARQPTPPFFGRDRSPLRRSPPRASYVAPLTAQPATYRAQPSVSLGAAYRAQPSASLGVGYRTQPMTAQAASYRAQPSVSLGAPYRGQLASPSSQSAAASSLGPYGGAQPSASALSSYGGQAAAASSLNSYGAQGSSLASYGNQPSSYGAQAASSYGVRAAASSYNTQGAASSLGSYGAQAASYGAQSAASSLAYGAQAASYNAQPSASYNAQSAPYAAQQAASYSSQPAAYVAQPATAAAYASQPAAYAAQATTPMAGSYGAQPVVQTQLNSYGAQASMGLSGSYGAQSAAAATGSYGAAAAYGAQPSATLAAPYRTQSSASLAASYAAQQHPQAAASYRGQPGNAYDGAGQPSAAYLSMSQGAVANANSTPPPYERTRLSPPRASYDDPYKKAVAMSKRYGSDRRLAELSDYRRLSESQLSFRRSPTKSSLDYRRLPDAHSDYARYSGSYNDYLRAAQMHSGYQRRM

Compound: COc1ccc(Cn2ccc3ccc(C(=O)NO)cc32)cc1
Experiment: dose-dependent thermal stabilisation call (2D-TPP, DLPTP, 10% FDR) (binary (1 = stabilised)); higher = stabilised by the compound
Settings: system: HL-60 intact cells; concentration range 0.04-10 µM

Target | dose-dependent thermal stabilisation call
RBM42 (UniProt Q9BTD8) | inactive: 0
PVR (UniProt P15151) | inactive: 0
RABGGTB (UniProt P53611) | inactive: 0
PXMP2 (UniProt Q9NR77) | inactive: 0
RANGRF (UniProt Q9HD47) | inactive: 0
PSMD9 (UniProt O00233) | inactive: 0
PRPF4 (UniProt O43172) | inactive: 0
RASSF2 (UniProt P50749) | inactive: 0
RAB3GAP (UniProt Q15042) | inactive: 0
PSMD6 (UniProt Q15008) | inactive: 0
PUM1 (UniProt Q14671) | inactive: 0
RAB8A (UniProt P61006) | inactive: 0
PRPSAP1 (UniProt Q14558) | inactive: 0
PSMD11 (UniProt O00231) | inactive: 0
RBM33 (UniProt Q96EV2) | inactive: 0
PTRH2 (UniProt Q9Y3E5) | inactive: 0
PYCRL (UniProt Q53H96) | inactive: 0
PSMC4 (UniProt P43686) | inactive: 0
PTPN9 (UniProt P43378) | inactive: 0
QPCTL (UniProt Q9NXS2) | inactive: 0
PSMB5 (UniProt P28074) | inactive: 0
PTPLAD1 (UniProt Q9P035) | inactive: 0
RANBP10 (UniProt Q6VN20) | inactive: 0
RANGAP1 (UniProt P46060) | inactive: 0
RBM27 (UniProt Q9P2N5) | inactive: 0

Target | dose-dependent thermal stabilisation call
RAB5A (UniProt P20339) | inactive: 0
RAD9A (UniProt Q99638) | inactive: 0
PTPN13 (UniProt Q12923) | inactive: 0
PTGES2 (UniProt Q9H7Z7) | inactive: 0
R3HCC1 (UniProt Q9Y3T6) | inactive: 0
RAB35 (UniProt Q15286) | inactive: 0
PRPSAP2 (UniProt O60256) | inactive: 0
RABGEF1 (UniProt Q9UJ41) | inactive: 0
PRMT5 (UniProt O14744) | inactive: 0
PSD4 (UniProt Q8NDX1) | inactive: 0
RAD50 (UniProt Q92878) | inactive: 0
RAB23 (UniProt Q9ULC3) | inactive: 0
PTPN7 (UniProt P35236) | inactive: 0
RBM3 (UniProt P98179) | inactive: 0
RAB6A (UniProt P20340) | inactive: 0
PRPS1 (UniProt P60891) | active: 1
PTBP1 (UniProt P26599) | inactive: 0
PWP2 (UniProt Q15269) | inactive: 0
PRTN3 (UniProt P24158) | inactive: 0
PTPN23 (UniProt Q9H3S7) | inactive: 0
RAB43 (UniProt Q86YS6) | inactive: 0
RANBP1 (UniProt P43487) | inactive: 0
RANBP3 (UniProt Q9H6Z4) | inactive: 0
RABL3 (UniProt Q5HYI8) | inactive: 0
RBCK1 (UniProt Q9BYM8) | inactive: 0

Already shown: entries from further up.
Target | dose-dependent thermal stabilisation call
PXMP2 (UniProt Q9NR77) | inactive: 0
RANGRF (UniProt Q9HD47) | inactive: 0
PSMD9 (UniProt O00233) | inactive: 0
PRPF4 (UniProt O43172) | inactive: 0

Next part:

Target | dose-dependent thermal stabilisation call
RAB4B (UniProt P61018) | inactive: 0
PTMA (UniProt P06454) | inactive: 0
RAD54L2 (UniProt Q9Y4B4) | inactive: 0
PSMD1 (UniProt Q99460) | inactive: 0
RAB11FIP1 (UniProt Q6WKZ4) | inactive: 0
PTPN2 (UniProt P17706) | inactive: 0
RABAC1 (UniProt Q9UI14) | inactive: 0
PTMS (UniProt P20962) | inactive: 0
RAB12 (UniProt Q6IQ22) | inactive: 0
PRR3 (UniProt P79522) | inactive: 0
PRPF8 (UniProt Q6P2Q9) | inactive: 0
PSMD8 (UniProt P48556) | inactive: 0
RAB27A (UniProt P51159) | inactive: 0
RANBP9 (UniProt Q96S59) | inactive: 0
RBM28 (UniProt Q9NW13) | inactive: 0
RALBP1 (UniProt Q15311) | inactive: 0
RAB4A (UniProt P20338) | inactive: 0
PSME3 (UniProt P61289) | inactive: 0
PTTG1 (UniProt O95997) | inactive: 0
RANBP6 (UniProt O60518) | inactive: 0
PSIP1 (UniProt O75475) | inactive: 0
RARS2 (UniProt Q5T160) | inactive: 0
RBM14 (UniProt Q96PK6) | inactive: 0
PSMB4 (UniProt P28070) | inactive: 0
